The text below walks through data of the supplement of paper PMC6411743.

Chains of the proteins cited; added tags and fusions are not shown. Lines headed by an entry give the natural chain unless they say otherwise; changes in a name come on top.
UniProt P0DJD0, whole entry, looked up: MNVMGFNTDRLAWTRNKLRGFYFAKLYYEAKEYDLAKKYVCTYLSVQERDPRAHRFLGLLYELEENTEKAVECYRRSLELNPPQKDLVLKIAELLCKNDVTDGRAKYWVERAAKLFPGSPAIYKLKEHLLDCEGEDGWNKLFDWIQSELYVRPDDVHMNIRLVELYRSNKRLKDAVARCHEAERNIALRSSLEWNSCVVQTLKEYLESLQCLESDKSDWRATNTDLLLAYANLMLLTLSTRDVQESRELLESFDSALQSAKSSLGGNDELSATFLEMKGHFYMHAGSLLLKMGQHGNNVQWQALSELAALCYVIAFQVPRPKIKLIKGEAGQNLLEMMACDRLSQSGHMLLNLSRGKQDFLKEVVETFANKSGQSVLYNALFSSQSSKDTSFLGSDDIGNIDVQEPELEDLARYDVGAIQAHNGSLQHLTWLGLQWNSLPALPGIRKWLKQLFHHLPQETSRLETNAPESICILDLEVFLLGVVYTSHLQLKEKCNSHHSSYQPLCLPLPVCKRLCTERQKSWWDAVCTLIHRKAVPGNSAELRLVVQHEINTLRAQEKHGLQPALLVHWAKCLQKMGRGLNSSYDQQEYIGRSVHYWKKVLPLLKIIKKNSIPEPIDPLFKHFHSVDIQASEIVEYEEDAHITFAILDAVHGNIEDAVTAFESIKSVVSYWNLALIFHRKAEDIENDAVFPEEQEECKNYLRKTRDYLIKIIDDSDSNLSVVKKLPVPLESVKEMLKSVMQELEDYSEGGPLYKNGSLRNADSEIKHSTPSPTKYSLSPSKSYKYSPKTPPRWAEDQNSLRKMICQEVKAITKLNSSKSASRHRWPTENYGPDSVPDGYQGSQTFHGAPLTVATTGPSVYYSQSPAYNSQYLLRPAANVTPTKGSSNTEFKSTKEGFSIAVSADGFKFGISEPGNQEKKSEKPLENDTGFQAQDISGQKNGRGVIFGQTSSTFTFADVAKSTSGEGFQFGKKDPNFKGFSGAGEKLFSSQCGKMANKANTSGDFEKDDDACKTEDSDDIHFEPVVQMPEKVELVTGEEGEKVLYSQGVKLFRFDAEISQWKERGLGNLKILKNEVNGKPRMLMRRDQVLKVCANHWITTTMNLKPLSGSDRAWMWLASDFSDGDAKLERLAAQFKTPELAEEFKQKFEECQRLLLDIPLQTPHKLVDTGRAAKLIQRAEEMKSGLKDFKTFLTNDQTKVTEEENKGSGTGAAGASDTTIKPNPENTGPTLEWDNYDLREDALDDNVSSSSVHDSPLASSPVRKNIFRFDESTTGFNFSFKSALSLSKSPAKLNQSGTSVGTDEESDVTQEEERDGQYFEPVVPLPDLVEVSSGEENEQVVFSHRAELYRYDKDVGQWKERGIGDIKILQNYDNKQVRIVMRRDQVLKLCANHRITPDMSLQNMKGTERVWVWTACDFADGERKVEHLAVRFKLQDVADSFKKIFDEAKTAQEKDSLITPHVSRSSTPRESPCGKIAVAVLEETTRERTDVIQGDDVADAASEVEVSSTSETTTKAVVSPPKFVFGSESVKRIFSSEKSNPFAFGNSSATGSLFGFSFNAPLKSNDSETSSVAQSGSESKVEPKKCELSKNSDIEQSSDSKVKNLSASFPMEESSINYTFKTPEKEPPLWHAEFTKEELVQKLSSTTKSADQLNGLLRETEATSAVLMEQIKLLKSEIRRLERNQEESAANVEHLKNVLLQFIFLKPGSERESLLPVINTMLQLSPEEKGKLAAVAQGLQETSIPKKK
UniProt Q8N8R7: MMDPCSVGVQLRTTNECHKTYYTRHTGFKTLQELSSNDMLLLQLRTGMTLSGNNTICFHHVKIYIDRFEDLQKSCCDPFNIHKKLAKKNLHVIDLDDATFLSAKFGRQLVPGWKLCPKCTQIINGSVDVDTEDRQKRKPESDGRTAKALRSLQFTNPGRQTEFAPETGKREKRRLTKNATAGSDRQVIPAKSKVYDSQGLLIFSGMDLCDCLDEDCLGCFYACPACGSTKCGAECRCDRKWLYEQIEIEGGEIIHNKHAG
UniProt P61923: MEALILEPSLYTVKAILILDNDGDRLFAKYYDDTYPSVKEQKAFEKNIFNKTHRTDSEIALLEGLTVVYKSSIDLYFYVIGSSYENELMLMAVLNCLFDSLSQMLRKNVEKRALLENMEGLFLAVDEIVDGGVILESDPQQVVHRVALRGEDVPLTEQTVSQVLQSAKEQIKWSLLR
UniProt Q9GZM5: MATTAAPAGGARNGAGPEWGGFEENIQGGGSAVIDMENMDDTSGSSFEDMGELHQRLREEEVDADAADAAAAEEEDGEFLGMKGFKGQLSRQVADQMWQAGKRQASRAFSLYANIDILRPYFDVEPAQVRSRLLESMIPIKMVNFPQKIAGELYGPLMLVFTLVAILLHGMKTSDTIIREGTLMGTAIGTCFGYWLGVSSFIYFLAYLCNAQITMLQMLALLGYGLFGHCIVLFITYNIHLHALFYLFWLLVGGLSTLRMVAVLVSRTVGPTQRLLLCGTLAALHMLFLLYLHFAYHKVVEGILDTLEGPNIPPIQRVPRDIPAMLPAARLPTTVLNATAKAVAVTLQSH
UniProt Q9GZN1, whole entry: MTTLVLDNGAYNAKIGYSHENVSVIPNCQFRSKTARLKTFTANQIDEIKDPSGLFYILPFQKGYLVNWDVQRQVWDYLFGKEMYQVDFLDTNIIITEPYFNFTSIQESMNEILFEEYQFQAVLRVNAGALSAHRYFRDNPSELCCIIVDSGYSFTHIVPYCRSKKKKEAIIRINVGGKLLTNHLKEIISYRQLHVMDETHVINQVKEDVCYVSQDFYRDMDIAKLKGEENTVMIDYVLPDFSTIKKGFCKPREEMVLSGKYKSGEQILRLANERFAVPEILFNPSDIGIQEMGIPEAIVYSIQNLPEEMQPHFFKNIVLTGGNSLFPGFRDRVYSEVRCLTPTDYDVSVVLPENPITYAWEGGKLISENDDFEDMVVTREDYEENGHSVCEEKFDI
UniProt E9PAV3, whole entry, looked up: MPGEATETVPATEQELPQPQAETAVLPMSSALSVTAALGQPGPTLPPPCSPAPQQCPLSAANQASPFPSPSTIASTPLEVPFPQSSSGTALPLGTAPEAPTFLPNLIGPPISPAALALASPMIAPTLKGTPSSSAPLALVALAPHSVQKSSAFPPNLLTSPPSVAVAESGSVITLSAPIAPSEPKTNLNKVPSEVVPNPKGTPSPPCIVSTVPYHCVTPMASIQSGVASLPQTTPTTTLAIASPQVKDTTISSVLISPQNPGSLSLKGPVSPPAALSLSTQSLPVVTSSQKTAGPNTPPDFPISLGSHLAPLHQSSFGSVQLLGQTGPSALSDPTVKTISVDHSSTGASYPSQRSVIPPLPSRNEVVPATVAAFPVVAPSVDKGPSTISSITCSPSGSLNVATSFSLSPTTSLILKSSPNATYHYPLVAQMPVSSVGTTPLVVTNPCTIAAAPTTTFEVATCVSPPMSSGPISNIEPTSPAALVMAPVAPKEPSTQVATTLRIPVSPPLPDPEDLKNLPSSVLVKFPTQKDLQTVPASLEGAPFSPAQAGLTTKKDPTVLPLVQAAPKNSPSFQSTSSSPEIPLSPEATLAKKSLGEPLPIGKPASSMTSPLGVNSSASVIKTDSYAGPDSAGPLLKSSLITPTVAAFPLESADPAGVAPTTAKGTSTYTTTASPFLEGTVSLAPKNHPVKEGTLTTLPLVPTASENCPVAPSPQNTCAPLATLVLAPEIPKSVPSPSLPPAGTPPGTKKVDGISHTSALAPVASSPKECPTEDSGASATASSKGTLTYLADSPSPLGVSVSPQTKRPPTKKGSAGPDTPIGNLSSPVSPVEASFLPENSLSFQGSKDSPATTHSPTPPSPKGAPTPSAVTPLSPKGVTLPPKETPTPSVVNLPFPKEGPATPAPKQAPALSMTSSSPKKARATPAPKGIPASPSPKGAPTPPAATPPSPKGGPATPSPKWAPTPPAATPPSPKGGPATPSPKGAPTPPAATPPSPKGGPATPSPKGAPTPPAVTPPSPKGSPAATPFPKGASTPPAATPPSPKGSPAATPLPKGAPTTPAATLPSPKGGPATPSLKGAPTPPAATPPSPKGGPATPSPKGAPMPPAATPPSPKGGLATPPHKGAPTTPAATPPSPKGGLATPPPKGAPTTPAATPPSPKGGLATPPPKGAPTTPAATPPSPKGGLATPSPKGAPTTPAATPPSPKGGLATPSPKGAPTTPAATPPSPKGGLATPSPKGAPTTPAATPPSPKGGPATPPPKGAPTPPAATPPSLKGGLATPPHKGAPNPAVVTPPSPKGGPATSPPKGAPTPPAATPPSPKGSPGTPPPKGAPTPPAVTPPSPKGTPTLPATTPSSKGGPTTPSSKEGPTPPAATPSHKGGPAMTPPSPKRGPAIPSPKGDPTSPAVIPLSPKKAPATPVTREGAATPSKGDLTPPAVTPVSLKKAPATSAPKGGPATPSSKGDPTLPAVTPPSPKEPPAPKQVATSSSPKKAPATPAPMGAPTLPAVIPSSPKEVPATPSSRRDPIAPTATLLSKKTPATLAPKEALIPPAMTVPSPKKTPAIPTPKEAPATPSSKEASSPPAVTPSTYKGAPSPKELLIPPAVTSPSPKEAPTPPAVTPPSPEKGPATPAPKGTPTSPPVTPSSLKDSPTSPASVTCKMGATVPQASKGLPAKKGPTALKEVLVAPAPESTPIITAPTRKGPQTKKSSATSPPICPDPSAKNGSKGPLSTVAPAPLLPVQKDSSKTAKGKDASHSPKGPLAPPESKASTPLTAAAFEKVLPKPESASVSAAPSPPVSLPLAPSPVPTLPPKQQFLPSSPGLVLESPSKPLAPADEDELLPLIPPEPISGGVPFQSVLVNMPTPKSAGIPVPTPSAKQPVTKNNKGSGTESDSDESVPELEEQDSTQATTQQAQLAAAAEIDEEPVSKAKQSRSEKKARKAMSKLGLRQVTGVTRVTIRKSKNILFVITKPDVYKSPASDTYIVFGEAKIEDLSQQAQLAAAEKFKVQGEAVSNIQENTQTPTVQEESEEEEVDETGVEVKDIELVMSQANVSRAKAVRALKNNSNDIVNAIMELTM
UniProt O15182: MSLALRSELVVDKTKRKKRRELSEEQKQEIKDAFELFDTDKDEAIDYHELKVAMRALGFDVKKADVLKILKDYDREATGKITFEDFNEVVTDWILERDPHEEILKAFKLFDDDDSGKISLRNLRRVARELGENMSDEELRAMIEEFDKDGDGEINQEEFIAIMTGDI
UniProt A2RUS2: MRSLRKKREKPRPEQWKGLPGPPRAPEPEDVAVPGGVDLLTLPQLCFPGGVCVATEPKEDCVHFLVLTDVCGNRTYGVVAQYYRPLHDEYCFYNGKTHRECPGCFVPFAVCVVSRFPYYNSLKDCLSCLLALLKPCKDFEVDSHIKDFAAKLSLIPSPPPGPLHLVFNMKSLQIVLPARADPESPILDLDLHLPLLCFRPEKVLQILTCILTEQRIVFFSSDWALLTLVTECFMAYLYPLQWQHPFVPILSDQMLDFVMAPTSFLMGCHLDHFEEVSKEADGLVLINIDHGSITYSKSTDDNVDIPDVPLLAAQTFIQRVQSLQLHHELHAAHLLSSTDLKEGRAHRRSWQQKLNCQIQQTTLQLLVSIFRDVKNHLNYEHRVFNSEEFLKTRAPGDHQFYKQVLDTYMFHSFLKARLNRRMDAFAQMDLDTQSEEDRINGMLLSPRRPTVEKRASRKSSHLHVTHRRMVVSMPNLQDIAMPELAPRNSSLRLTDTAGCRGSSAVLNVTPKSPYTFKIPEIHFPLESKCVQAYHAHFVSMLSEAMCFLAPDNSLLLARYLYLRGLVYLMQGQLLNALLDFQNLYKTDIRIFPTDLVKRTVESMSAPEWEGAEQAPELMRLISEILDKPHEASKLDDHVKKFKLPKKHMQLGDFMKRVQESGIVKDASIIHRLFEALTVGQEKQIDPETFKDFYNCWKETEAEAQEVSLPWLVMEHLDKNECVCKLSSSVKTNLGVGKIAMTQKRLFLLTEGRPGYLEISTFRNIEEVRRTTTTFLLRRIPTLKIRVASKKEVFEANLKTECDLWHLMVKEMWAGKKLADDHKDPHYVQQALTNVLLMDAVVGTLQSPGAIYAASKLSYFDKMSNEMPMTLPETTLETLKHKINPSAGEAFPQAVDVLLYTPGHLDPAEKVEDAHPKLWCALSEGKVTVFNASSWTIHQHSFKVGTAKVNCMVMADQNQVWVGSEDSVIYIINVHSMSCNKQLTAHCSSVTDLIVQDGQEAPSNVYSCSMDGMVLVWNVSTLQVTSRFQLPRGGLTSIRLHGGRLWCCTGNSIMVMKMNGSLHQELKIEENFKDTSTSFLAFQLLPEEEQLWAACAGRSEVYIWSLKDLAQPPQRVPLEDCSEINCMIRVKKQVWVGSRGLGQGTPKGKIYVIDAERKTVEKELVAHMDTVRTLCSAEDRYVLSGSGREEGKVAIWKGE
UniProt O00559: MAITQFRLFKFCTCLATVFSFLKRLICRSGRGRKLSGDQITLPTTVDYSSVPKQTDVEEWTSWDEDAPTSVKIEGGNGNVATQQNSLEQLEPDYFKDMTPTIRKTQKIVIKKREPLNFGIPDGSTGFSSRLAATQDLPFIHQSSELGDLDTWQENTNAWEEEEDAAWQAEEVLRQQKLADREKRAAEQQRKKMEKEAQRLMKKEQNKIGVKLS

Compound in the experiment: Nc1ncnc2c1ncn2[C@@H]1O[C@H](COP(=O)(O)OP(=O)(O)NP(=O)(O)O)[C@@H](O)[C@H]1O [adenylyl imidodiphosphate]
Put plainly: NP40-soluble protein abundance relative to vehicle (solubility fold change) (ratio); higher = more soluble protein in presence of AMP-PNP. The method in brief:
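Each value is a fold change relative to the detergent-processed vehicle, calculated per replicate from vsn-normalised intensities. Jurkat crude lysate received eight concentrations (0.1 to 10 mM) for 10 min at room temperature and 3 min at 37 °C, then was solubilised in 0.8% NP40 with benzonase (60 min, 4 °C). The ultracentrifuged supernatant was TMT-labelled and run by LC-MS/MS in three independent experiments.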

± gives the standard deviation of the averaged measurements. Only a part is listed here, and it is no random draw.

Consider “E7EX17 and related entries (UniProt P23588)”, for which the NP40-soluble protein abundance (concentration: 1mM) was determined as 1.06 ± 0.06; the NP40-soluble protein abundance (concentration: 2mM) amounted to 1.14 ± 0.072; the NP40-soluble protein abundance (concentration: 4mM) is 1.07 ± 0.031; the NP40-soluble protein abundance (concentration: 6mM) is 1.08 ± 0.081; the NP40-soluble protein abundance (concentration: 8mM) amounted to 1.06 ± 0.036; the NP40-soluble protein abundance (concentration: 10mM) was 1.11 ± 0.039.

In the case of “F8VYC4 and related entries (UniProt P0DJD1+P0DJD0+F8VYC4)”, the NP40-soluble protein abundance is, setting by setting: (concentration: 1mM) 1.014 ± 0.0075; (concentration: 2mM) 1.04 ± 0.025; (concentration: 4mM) 0.984 ± 0.026; (concentration: 6mM) 0.997 ± 0.011; (concentration: 8mM) 0.986 ± 0.02; (concentration: 10mM) 1.005 ± 0.0089.

For “F5GX51 and related entries (UniProt Q9Y4F9)”, the NP40-soluble protein abundance by setting is: (concentration: 1mM) 0.989 ± 0.032; (concentration: 2mM) 0.9663 ± 0.0022; (concentration: 4mM) 0.982 ± 0.022; (concentration: 6mM) 0.9632 ± 0.0049; (concentration: 8mM) 0.941 ± 0.022; (concentration: 10mM) 0.979 ± 0.04.

In the case of “E9PHG5 and related entries (UniProt Q6UW02)”, the NP40-soluble protein abundance by setting is: (concentration: 1mM) 0.987 ± 0.054; (concentration: 2mM) 0.975 ± 0.054; (concentration: 4mM) 0.991 ± 0.042; (concentration: 6mM) 1.01 ± 0.088; (concentration: 8mM) 1.01 ± 0.063; (concentration: 10mM) 0.999 ± 0.079.

With “E9PRK7 and related entries (UniProt Q8N8R7)”, the NP40-soluble protein abundance came to 1.01 ± 0.028 (concentration: 1mM); 0.998 ± 0.018 (concentration: 2mM); 0.982 ± 0.0046 (concentration: 4mM); 1 ± 0.037 (concentration: 6mM); 0.987 ± 0.03 (concentration: 8mM); 0.9978 ± 0.003 (concentration: 10mM).

Take “F6S7C4 and related entries (UniProt Q8NEM7)”: the NP40-soluble protein abundance (concentration: 1mM) was found to be 1.003 ± 0.0042; the NP40-soluble protein abundance (concentration: 2mM) was found to be 1.015 ± 0.007; the NP40-soluble protein abundance (concentration: 4mM) was found to be 0.995 ± 0.0081; the NP40-soluble protein abundance (concentration: 6mM) stood at 1.015 ± 0.0086; the NP40-soluble protein abundance (concentration: 8mM) amounted to 1.031 ± 0.0024; the NP40-soluble protein abundance (concentration: 10mM) was 1.03 ± 0.023.

Consider “F5H610 and related entries (UniProt Q9Y478)”, for which the NP40-soluble protein abundance by setting is: (concentration: 1mM) 1.01 ± 0.023; (concentration: 2mM) 0.9916 ± 0.0069; (concentration: 4mM) 0.992 ± 0.03; (concentration: 6mM) 0.945 ± 0.053; (concentration: 8mM) 0.932 ± 0.037; (concentration: 10mM) 0.911 ± 0.029.

On to “F8VVA7 and related entries (UniProt P61923)”, for which the NP40-soluble protein abundance was 1.08 ± 0.073 (concentration: 1mM); 1.08 ± 0.057 (concentration: 2mM); 1.05 ± 0.09 (concentration: 4mM); 0.967 ± 0.077 (concentration: 6mM); 0.959 ± 0.076 (concentration: 8mM); 0.984 ± 0.11 (concentration: 10mM).

On to “E7EQR8 and related entries (UniProt Q9GZM5)”, for which the NP40-soluble protein abundance was determined as 1.01 ± 0.038 (concentration: 1mM); 1.03 ± 0.024 (concentration: 2mM); 1 ± 0.02 (concentration: 4mM); 1.02 ± 0.029 (concentration: 6mM); 1.01 ± 0.018 (concentration: 8mM); 1.02 ± 0.019 (concentration: 10mM).

With “F8W057 and related entries (UniProt Q9GZN1)”, the NP40-soluble protein abundance was 1.04 ± 0.017 (concentration: 1mM); 1.04 ± 0.013 (concentration: 2mM); 1.09 ± 0.052 (concentration: 4mM); 1.03 ± 0.067 (concentration: 6mM); 1.07 ± 0.045 (concentration: 8mM); 1.06 ± 0.028 (concentration: 10mM).

“E9PAV3 and related entries (UniProt Q13765+H0YHX9+F8VZJ2+E9PAV3)”: the NP40-soluble protein abundance worked out at 0.971 ± 0.054 (concentration: 1mM); 1.02 ± 0.084 (concentration: 2mM); 1.02 ± 0.06 (concentration: 4mM); 1.11 ± 0.13 (concentration: 6mM); 1.12 ± 0.066 (concentration: 8mM); 1.25 ± 0.083 (concentration: 10mM).

For “E9PIK4 and related entries (UniProt O14683)”, the NP40-soluble protein abundance runs as follows: (concentration: 1mM) 0.961 ± 0.025; (concentration: 2mM) 0.975 ± 0.013; (concentration: 4mM) 0.953 ± 0.044; (concentration: 6mM) 0.9157 ± 0.0029; (concentration: 8mM) 0.913 ± 0.043; (concentration: 10mM) 0.903 ± 0.053.

Take “E5RJF8 and related entries (UniProt O15182)”: the NP40-soluble protein abundance (concentration: 1mM) worked out at 1.02 ± 0.019; the NP40-soluble protein abundance (concentration: 2mM) came out at 1.02 ± 0.024; the NP40-soluble protein abundance (concentration: 4mM) came to 0.998 ± 0.011; the NP40-soluble protein abundance (concentration: 6mM) is 0.9911 ± 0.0075; the NP40-soluble protein abundance (concentration: 8mM) worked out at 0.992 ± 0.015; the NP40-soluble protein abundance (concentration: 10mM) is 1.01 ± 0.022.

As to “E9PF32 and related entries (UniProt A2RUS2)”, the NP40-soluble protein abundance stood at 0.955 ± 0.057 (concentration: 1mM); 0.946 ± 0.02 (concentration: 2mM); 0.949 ± 0.042 (concentration: 4mM); 0.929 ± 0.048 (concentration: 6mM); 0.944 ± 0.034 (concentration: 8mM); 0.903 ± 0.047 (concentration: 10mM).

With “E9PN10 and related entries (UniProt O00559)”, the NP40-soluble protein abundance came to 1 ± 0.016 (concentration: 1mM); 1.07 ± 0.041 (concentration: 2mM); 0.993 ± 0.01 (concentration: 4mM); 1.02 ± 0.013 (concentration: 6mM); 0.994 ± 0.059 (concentration: 8mM); 1.04 ± 0.05 (concentration: 10mM).
